{
  "source": "PubChem BioAssay AID504648",
  "about": "(National Center for Advancing Translational Sciences (NCATS), 2011)",
  "note": "In all, about 390,000 compounds went through this assay and about 610 (0.16%) were called active. Inconclusive results, whose numbers are uncertain, are shown with a selection of clear calls. The call rests on the fitted dose curve; in most records, active means well fitted inhibition curve with a large enough effect; inconclusive means small, poorly fitted or top-dose-only effect, or effect the other way, or another doubt; inactive means no such curve, though single readings can be large or run the other way. A potency beside an inconclusive call is a rough fit, not a confirmed value. Potency means the concentration at half of the fitted maximal effect.",
  "data": [
    {"experiment": "Nrf2 qHTS screen for inhibitors: counterscreen for cytotoxicity", "conditions": "A549 ARE-Fluc cells, CellTiter-Fluor viability, 18-24 h; series mostly up to 46 µM", "in_short": "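Cytotoxicity counterscreen: CellTiter-Fluor fluorescence was measured in A549 ARE_Fluc cells after 18-24 h of compound exposure in a concentration series. The subsequent BugLite luminescent read reports ARE-luciferase activity.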", "values": [
      {"smiles": "Cc1nn(Cc2ccc(Cl)cc2)c(C)c1NC(=O)c1cc(-c2ccc3c(c2)OCO3)on1", "Potency": "inconclusive: 25.9 µM [falling, single point]"},
      {"smiles": "Cc1cccc(CN2CCC(Oc3ccc(C(=O)N4CCCC4)cc3)CC2)n1", "Potency": "inconclusive: 16.4 µM [falling, partial curve, poor fit]"},
      {"smiles": "Cc1csc(NC(=S)NC(=O)c2ccccc2)n1", "Potency": "inactive"},
      {"smiles": "CSc1oc(-c2cccs2)nc1S(=O)(=O)c1ccc(Br)cc1", "Potency": "inconclusive: 13 µM [activator, partial curve, poor fit]"},
      {"smiles": "CC(=O)Nc1ccc(-c2csc(N/N=C(/C)c3ccccc3)n2)cc1", "Potency": "inactive"},
      {"smiles": "Cc1ccc(CNC(=O)c2ccccc2N)cc1", "Potency": "inactive"},
      {"smiles": "O=C(NCCNc1ccc([N+](=O)[O-])cc1C(F)(F)F)c1cccc(F)c1", "Potency": "inconclusive: 18.4 µM [falling, single point]"},
      {"smiles": "O=C1CC(Nc2ccc(N3CCOCC3)cc2)C(=O)N1c1ccccc1F", "note": "(stereo not given)", "Potency": "inactive"},
      {"smiles": "CC(C)(C)c1n[nH]c2c1CCCC2", "Potency": "inactive"},
      {"smiles": "O=C(COc1ccccc1F)Nc1ccc(OCc2cc(=O)n3ccccc3n2)cc1", "Potency": "inconclusive: 1.16 µM [activator, full curve, poor fit]"},
      {"smiles": "CCOC(=O)c1cccc(NC(=O)CCn2cccc2)c1", "Potency": "inactive"},
      {"smiles": "CCOc1ccc(NC(=O)CCc2c(C)nc3c(-c4ccccc4)c(C)nn3c2C)cc1", "Potency": "inconclusive: 29.1 µM [activator, partial curve, poor fit]"},
      {"smiles": "COC(=O)c1ccc(COC(=O)c2ccccc2OC)cc1", "Potency": "inactive"},
      {"smiles": "Cc1ccnc(SCC(=O)c2ccc([N+](=O)[O-])cc2)n1", "Potency": "inactive"},
      {"smiles": "COc1ccc(-c2onc3ccc(C(=O)/C=C/N(C)C)cc23)cc1", "Potency": "inactive"},
      {"smiles": "CC(C)(C)c1ccc(S(=O)(=O)N2CCN(c3nc(-c4cccs4)nc4ccccc34)CC2)cc1", "Potency": "inactive"},
      {"smiles": "CC(C)CC(COCc1ccc(Cl)cc1)N1CCN(C(=O)c2ccc(Cl)cc2Cl)CCC1=O", "note": "(stereo not given)", "Potency": "inconclusive: 29.1 µM [falling, single point]"},
      {"smiles": "COc1ccc(CCn2c(N)c(C(=O)NCc3ccco3)c3nc4ccccc4nc32)cc1OC", "Potency": "inconclusive: 6.51 µM [activator, single point]"},
      {"smiles": "Cc1ccc(Cn2c(C)c3cnn(CC(=O)NCCc4ccc(Cl)cc4)c(=O)c3c2C)cc1", "Potency": "inactive"},
      {"smiles": "CCc1sc(-c2cc3ccc(O)cc3oc2=O)nc1-c1ccc(C)cc1", "Potency": "inconclusive: 8.2 µM [activator, partial curve]"},
      {"smiles": "O=C1CCCc2c1nc(-c1ccccc1F)n2O", "Potency": "inactive"},
      {"smiles": "Cc1cc(C(=O)COC(=O)C2=COCCO2)c(C)n1-c1ccccc1", "Potency": "inactive"},
      {"smiles": "CCc1ccc(NC(=O)C(Cc2ccccc2)NS(=O)(=O)c2ccc3c(c2)c(=O)n(C)c(=O)n3C)cc1", "note": "(stereo not given)", "Potency": "inconclusive: 25.9 µM [falling, single point]"},
      {"smiles": "CCOC(=O)c1sc(=S)n(C)c1NC(=O)c1ccc(C(C)(C)C)cc1", "Potency": "inconclusive: 18.4 µM [falling, single point]"},
      {"smiles": "CC(=O)N1CCc2cc(S(=O)(=O)NC3CCCc4ccccc43)ccc21", "note": "(stereo not given)", "Potency": "inactive"},
      {"smiles": "O=[N+]([O-])c1cc(S(=O)(=O)Nc2ccccc2)ccc1Nc1ccccc1", "Potency": "inconclusive: 29.1 µM [falling, single point]"},
      {"smiles": "CCN(CC)CCOC(=O)c1ccc(NC(=O)CCCN2C(=O)/C(=C\\c3cccs3)SC2=S)cc1", "Potency": "inconclusive: 20.6 µM [falling, single point]"},
      {"smiles": "CC1(C)C/C(=N/Nc2ccc([N+](=O)[O-])cc2[N+](=O)[O-])C(C)(C)O1", "Potency": "inconclusive: 13 µM [falling, partial curve, poor fit]"},
      {"smiles": "COc1ccc(S(=O)(=O)NCc2nc3nc(C)cc(C)n3n2)cc1OC", "Potency": "inactive"},
      {"smiles": "Cc1cc(C)c2c3c(sc2n1)C(=O)N(c1ccccc1C)CC(=O)N3", "Potency": "inactive"},
      {"smiles": "O=C(Cn1nc2ccccc2n1)N/N=C/c1cc([N+](=O)[O-])ccc1O", "Potency": "inconclusive: 29.1 µM [falling, single point]"},
      {"smiles": "COC(=O)c1c(-c2ccc3ccccc3c2)csc1NC(=O)Cc1ccc(OC)c(OC)c1", "Potency": "inconclusive: 20.6 µM [falling, partial curve, poor fit]"},
      {"smiles": "Cc1ccc(S(=O)(=O)N(CCc2ccccc2)CC(=O)Nc2ccc(Br)cc2)cc1", "Potency": "inactive"},
      {"smiles": "CC1(C)CC(=O)C2=C(C1)NCN(Cc1ccccc1)C2", "Potency": "inconclusive: 1.16 µM [falling, partial curve, poor fit]"},
      {"smiles": "CCc1cccc(CC)c1NC(=O)CCS(=O)(=O)c1ccc2c(c1)CCN2C(C)=O", "Potency": "inactive"},
      {"smiles": "COC(=O)C1=C(C)N(Cc2ccccc2)C(=NCc2cccc(Cl)c2)N[C@H]1c1cccc(F)c1", "Potency": "inconclusive: 18.4 µM [falling, single point]"},
      {"smiles": "N#Cc1c(NC(=O)C2CCCO2)sc2c1CCCCCC2", "note": "(stereo not given)", "Potency": "inactive"},
      {"smiles": "CC(C)(C)CN1CCNC(=O)C1CC(=O)NCCc1ccccc1C(F)(F)F", "note": "(stereo not given)", "Potency": "inconclusive: 18.4 µM [falling, partial curve, poor fit]"},
      {"smiles": "Cc1cc(C)cc(Oc2coc3cc(OC(=O)c4cccs4)ccc3c2=O)c1", "Potency": "inactive"},
      {"smiles": "O=C(NC1CCCC1)C(c1ccc(F)cc1)N(C(=O)c1csnn1)C1CC1", "note": "(stereo not given)", "Potency": "inactive"},
      {"smiles": "CC1(C)Cc2nc3oc4c(N(CCO)Cc5ccccc5)ncnc4c3cc2CO1", "Potency": "inactive"},
      {"smiles": "CCc1ccccc1NC(=O)CSc1nc2c(oc3ccccc32)c(=O)n1C", "Potency": "inactive"},
      {"smiles": "COc1cc(C2C(C(=O)c3cc4ccccc4o3)=C(O)C(=O)N2c2cc(C)on2)cc(OC)c1OC", "note": "(stereo not given)", "Potency": "inconclusive: 20.6 µM [falling, partial curve, poor fit]"},
      {"smiles": "COc1cc(/C=c2\\s/c(=C\\C(=O)C(C)(C)C)[nH]c2=O)cc(OC)c1OC", "Potency": "inconclusive: 20.6 µM [falling, partial curve, poor fit]"},
      {"smiles": "Cc1ccnc(NC(=O)CSc2cc(=O)n(C)c3ccccc23)c1", "Potency": "inconclusive: 29.1 µM [falling, single point]"},
      {"smiles": "Cc1ccc(C(=O)Nc2cccc(C(=O)OCc3cc(=O)n4nc(C5CC5)sc4n3)c2)cc1", "Potency": "inactive"},
      {"smiles": "Clc1ccc(Nc2c(-c3ccccc3Cl)nc3ccc(Cl)cn23)cc1", "Potency": "inconclusive: 29.1 µM [falling, single point]"},
      {"smiles": "Cc1ccc(-c2ccc(=O)n(CC(=O)N3CCN(c4cc(Cl)ccc4C)CC3)n2)cc1", "Potency": "inconclusive: 35.5 µM [falling, partial curve, poor fit]"},
      {"smiles": "COc1cccc(C(=O)/C=C/Nc2ccc(S(=O)(=O)Nc3cccc(C(C)=O)c3)cc2)c1", "Potency": "inconclusive: 18.4 µM [falling, single point]"},
      {"smiles": "COc1ccc(Cn2c(C(=O)O)c(CNCc3ccc(SC)cc3)c3ccc(OC)cc32)cc1", "Potency": "inconclusive: 13 µM [falling, partial curve]"},
      {"smiles": "Cc1cc(NC(=O)CS(=O)(=O)c2cn(Cc3cccc(F)c3)c3ccccc23)no1", "Potency": "inconclusive: 29.1 µM [falling, partial curve, poor fit]"},
      {"smiles": "CCC(C)NC(=O)c1sc2nc(C)c(C(=O)Nc3ccc(C)cc3C)c(-c3ccc(NC(C)=O)cc3)c2c1N", "note": "(stereo not given)", "Potency": "inconclusive: 20.6 µM [activator, partial curve, poor fit]"},
      {"smiles": "COc1ccc(OC)c(S(=O)(=O)NCC(c2cccs2)S(=O)(=O)c2ccc(F)cc2)c1", "note": "(stereo not given)", "Potency": "inactive"},
      {"smiles": "CSc1ccccc1NC(=O)CSc1n[nH]c(C)c1[N+](=O)[O-]", "Potency": "inactive"},
      {"smiles": "CC(C)(C)n1nnnc1C(c1cccs1)N(Cc1cccnc1)Cc1ccco1", "note": "(stereo not given)", "Potency": "inactive"},
      {"smiles": "COc1ccccc1C(=O)N1c2ccccc2Sc2ccccc21", "Potency": "inactive"},
      {"smiles": "O=[N+]([O-])c1ccc(Nc2ccc(Cl)cc2)nc1", "Potency": "inconclusive: 10.3 µM [falling, partial curve, poor fit]"},
      {"smiles": "O=C1NC(c2ccc(O)cc2)Nc2ccccc21", "note": "(stereo not given)", "Potency": "inconclusive: 16.4 µM [falling, partial curve, poor fit]"},
      {"smiles": "C=CCn1c(C)cc(C(=O)CN2NS(=O)(=O)c3ccccc3C2=O)c1C", "Potency": "inactive"},
      {"smiles": "CCN(CC)S(=O)(=O)c1ccc(N2CCN(S(=O)(=O)c3ccc4c(c3)OCCO4)CC2)nc1", "Potency": "inactive"},
      {"smiles": "COc1cccc(-c2cc(C(=O)Nc3cc(C)n(Cc4ccc(Cl)cc4)n3)no2)c1", "Potency": "inconclusive: 11.6 µM [falling, partial curve, poor fit]"},
      {"smiles": "COc1cccc(-c2csc(N3CCN(CC(=O)NNC(=O)c4ccc(Cl)cc4)CC3)n2)c1", "Potency": "inconclusive: 29.1 µM [falling, single point]"},
      {"smiles": "CC(C)(C)N1C(=O)c2ccc(C(=O)Nc3ccc(O)cc3)cc2C1=O", "Potency": "inconclusive: 20.6 µM [falling, single point]"},
      {"smiles": "Cc1sc2nc3c(SC(C)C(=O)O)cc(C(=O)c4ccccc4O)cn3c(=O)c2c1C", "note": "(stereo not given)", "Potency": "inconclusive: 7.31 µM [falling, partial curve, poor fit]"},
      {"smiles": "Cc1ccc(NC(=O)CSc2nc3ccccc3c(=O)n2CCCN2CCCCC2)cc1Cl", "Potency": "inconclusive: 29.1 µM [falling, single point]"},
      {"smiles": "Cc1ccccc1CCNC(=O)c1ccc2c(c1)nc1n2CCCCC1", "Potency": "inactive"},
      {"smiles": "N#CC(c1ccccc1)c1ccc2c(C(F)(F)F)cc(C(F)(F)F)nc2n1", "note": "(stereo not given)", "Potency": "inconclusive: 29.1 µM [falling, single point]"},
      {"smiles": "CCc1ccc2nc(N(CCCN(C)C)C(=O)c3ccc(S(=O)(=O)N4CCc5ccccc5C4)cc3)sc2c1", "Potency": "inconclusive: 29.1 µM [falling, single point]"},
      {"smiles": "Cc1c(Cl)cccc1N/C(SCC(=O)N1CCCCCC1)=C(/C#N)c1nc2ccccc2s1", "Potency": "inconclusive: 29.1 µM [falling, single point]"},
      {"smiles": "COc1cc2c(cc1NC(=O)Nc1cccc(C)c1)oc1ccccc12", "Potency": "inactive"}
    ]}
  ]
}
